Five sequences from US5756291 can be followed below.

For part of these data: No signal at the amounts used counts as a negative. For part of these data: Tags and fusion partners may be left off the protein sequences shown. For part of these data: Construct, isoform or probe ends are uncertain for at least one entry.

The subject of one series is chymotrypsin. The experiment in a line: filter binding. As to conditions: ~1 uM protein; purified native protein; protein details: Sigma (Example 20); label: 32P; single-stranded DNA.
Series [1] concerns thrombin (alpha, Factor IIa) (Homo sapiens). In words: filter binding. To be noted: purified native protein, label: 32P, single-stranded DNA.
Series [2] deals with prothrombin (Homo sapiens) (UniProt P00734). In words: filter binding. To be noted: ~1 uM protein; repeat 9.5%; purified native protein; protein details: Haematologic Technologies (Example 20); label: 32P; single-stranded DNA.
For a further series, the system named is plasmin. In words: filter binding. To be noted: ~1 uM protein; repeat 15.0%; purified native protein; label: 32P; single-stranded DNA.
For another series, the target named is trypsin (UniProt P00760). The experiment in a line: filter binding. As to conditions: ~1 uM protein; purified native protein; protein details: Sigma (Example 20); label: 32P; single-stranded DNA.
Series [3] addresses TPA (tissue plasminogen activator) (UniProt P00750). The experiment in a line: filter binding. To be noted: ~1 uM protein; purified native protein; label: 32P; single-stranded DNA.
The target in series [4] is serum albumin (Homo sapiens) (UniProt P02768). In words: filter binding. To be noted: 100 uM protein; repeat <0.5%; purified native protein; protein details: Sigma (Example 20); label: 32P; single-stranded DNA; counted as no binding.
Series [5] concerns thrombin (alpha, Factor IIa) (Homo sapiens). In words: inhibition of the protein. As to conditions: control 24.3 s, purified native protein, single-stranded DNA, counted as no effect.
The target in a further series is T1, ancrod (UniProt P26324).
T1 sequence (looked up, limits assumed): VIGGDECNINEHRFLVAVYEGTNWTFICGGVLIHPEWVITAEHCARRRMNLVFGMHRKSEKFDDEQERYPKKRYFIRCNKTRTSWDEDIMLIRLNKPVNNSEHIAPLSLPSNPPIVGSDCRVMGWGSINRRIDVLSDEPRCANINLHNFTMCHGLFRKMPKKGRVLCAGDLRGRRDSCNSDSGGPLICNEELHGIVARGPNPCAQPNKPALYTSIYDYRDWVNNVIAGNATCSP
In words: inhibition of the protein. As to conditions: 33 uM DNA; control 25 s, 24 s at 500 nM; purified native protein; protein details: Sigma A-5042; single-stranded DNA; counted as no effect.

Series [6] deals with gamma-thrombin (Greek letter lost in print + thrombin with proteolytically cleaved anion binding exosite) (Homo sapiens). The experiment in a line: EMSA. To be noted: X 5-pentynyl-dU, T in 3' constant region also 5-pentynyl-dU, T in 5' constant region unmodified [23,25,27,30,32,35,37,38 (X = 5-pentynyl-dU), 44,45,46,50,58 (3' constant region T = 5-pentynyl-dU)], 500 nM protein, 4 C, purified native protein, protein details: Haematologic Technologies, single-stranded DNA, letters built from the parent sequence and the stated change.

In general, Kd refers to the equilibrium constant for the complex coming apart. Low values mean tighter binding, high ones weaker binding. “CGGGGAGAGGTTGGTGTGGTTGGCAATGGCTAGAGTAGTGACGTTTTCGCGGTGAGGTCC”: the binding signal with chymotrypsin is under 0.5 % bound; in series [1] (~1 uM protein), 59 % bound; in series [2], 11 % bound; in the series with plasmin, 15 % bound; with trypsin, under 0.5 % bound; in series [3], under 0.5 % bound. The sequence further displayed a binding signal in [4] of 2 % bound. The same sequence gave a Kd in [1] (selection buffer, Mg2+, Ca2+, K+) of 200 nM.
Take “GCTGTAGATATTAGTATAGT [clone 24 20-nt variable region scrambled]”: the functional effect of the aptamer in [5] (X 5-pentynyl-dU [3,5,9,11,12,15,17,20 (X = 5-pentynyl-dU)], 1 uM, letters built from the parent sequence and the stated change, variant of clone 24 20-nt variable region) came to 24 s clot time.
With “GGTTGGGCTGGTTGGGTTGGG [21-mer thrombin aptamer]”, the functional effect of the aptamer with ancrod came to 26 s clot time.
With “TAGAATACTCAAGCTTCGACGGTATATAGTATAGTATTGGCAGTTTGGATCCCCGGGTAC [clone 24 T-substituted 60-mer]”, in series [5] (4 uM, variant of pentynyl-dU clone 24 60-mer), the functional effect of the aptamer is 25.1 s clot time.
“TAGAATACTCAAGCTTCGACGGTATATAGTATAGTATTGGCAGTTTGGATCCCCGGGTAC [pentynyl-dU clone 24 60-mer]”: the binding result in series [6] was “no binding”.
